# From publication PMC3196579
# Chains of the proteins cited; added tags and fusions are not shown. Residues count along the entry.
# UniProt P11021, residues 19-654: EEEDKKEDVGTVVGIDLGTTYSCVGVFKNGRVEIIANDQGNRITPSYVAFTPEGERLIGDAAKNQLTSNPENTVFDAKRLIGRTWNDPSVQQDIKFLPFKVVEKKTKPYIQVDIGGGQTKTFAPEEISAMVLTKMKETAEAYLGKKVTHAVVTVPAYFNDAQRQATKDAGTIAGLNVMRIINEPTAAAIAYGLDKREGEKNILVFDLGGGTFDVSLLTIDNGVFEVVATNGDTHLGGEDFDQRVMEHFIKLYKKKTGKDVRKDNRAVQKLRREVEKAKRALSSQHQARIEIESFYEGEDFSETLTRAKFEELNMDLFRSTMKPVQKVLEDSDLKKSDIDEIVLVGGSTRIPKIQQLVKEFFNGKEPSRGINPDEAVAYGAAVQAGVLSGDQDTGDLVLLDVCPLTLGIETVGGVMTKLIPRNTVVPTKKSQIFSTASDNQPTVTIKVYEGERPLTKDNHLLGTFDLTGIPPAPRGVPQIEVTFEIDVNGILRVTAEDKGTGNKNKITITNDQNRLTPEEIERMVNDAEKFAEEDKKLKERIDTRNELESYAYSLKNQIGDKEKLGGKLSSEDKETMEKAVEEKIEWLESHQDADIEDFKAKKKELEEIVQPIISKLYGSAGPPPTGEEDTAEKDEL
# UniProt P30101, residues 25-505: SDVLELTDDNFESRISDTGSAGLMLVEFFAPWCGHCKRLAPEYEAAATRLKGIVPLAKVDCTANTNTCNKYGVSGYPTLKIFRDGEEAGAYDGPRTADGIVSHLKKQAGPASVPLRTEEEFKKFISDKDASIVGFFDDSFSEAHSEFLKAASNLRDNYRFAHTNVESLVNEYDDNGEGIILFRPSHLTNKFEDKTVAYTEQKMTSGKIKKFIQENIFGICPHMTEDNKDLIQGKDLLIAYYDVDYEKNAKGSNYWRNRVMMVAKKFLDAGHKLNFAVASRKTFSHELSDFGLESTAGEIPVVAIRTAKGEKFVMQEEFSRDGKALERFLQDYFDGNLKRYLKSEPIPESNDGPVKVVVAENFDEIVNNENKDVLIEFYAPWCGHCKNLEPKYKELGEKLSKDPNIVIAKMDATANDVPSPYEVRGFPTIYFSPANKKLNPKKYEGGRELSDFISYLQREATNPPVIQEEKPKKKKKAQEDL
# UniProt P14625, residues 22-803: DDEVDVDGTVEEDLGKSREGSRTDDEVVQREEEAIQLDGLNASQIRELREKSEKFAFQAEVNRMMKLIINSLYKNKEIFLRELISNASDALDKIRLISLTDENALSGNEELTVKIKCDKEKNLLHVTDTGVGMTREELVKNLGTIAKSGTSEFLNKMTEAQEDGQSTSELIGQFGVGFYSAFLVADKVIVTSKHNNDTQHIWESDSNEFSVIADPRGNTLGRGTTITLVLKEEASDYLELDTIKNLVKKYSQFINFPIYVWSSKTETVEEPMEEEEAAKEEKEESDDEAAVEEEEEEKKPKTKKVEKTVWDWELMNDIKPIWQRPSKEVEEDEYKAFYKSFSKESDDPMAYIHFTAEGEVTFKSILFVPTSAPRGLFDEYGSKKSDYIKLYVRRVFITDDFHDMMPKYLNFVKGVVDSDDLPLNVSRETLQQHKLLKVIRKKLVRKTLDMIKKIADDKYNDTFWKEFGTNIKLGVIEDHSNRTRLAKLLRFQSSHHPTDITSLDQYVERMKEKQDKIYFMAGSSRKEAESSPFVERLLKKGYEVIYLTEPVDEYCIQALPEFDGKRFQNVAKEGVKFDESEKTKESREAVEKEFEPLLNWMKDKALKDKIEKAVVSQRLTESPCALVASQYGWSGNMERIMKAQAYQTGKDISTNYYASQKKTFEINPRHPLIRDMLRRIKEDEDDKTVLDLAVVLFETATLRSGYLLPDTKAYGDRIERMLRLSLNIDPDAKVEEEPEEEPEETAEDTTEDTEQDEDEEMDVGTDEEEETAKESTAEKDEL
# UniProt P0DMV8: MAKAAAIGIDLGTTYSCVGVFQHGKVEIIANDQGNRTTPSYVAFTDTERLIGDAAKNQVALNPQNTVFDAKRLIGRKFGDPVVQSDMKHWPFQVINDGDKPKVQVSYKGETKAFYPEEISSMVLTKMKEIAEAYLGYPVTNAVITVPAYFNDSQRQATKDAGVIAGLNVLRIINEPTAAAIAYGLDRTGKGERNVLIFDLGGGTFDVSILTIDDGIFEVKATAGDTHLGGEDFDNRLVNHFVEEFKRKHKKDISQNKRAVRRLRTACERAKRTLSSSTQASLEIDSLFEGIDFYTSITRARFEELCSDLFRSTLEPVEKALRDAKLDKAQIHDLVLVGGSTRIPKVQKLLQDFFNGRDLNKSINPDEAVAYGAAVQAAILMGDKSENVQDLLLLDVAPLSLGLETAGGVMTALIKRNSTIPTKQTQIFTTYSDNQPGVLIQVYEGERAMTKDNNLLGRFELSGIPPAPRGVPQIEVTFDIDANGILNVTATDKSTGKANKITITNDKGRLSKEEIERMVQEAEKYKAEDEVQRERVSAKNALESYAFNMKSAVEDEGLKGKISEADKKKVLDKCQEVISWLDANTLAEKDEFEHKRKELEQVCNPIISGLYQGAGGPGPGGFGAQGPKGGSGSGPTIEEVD
# UniProt P07237, residues 18-508: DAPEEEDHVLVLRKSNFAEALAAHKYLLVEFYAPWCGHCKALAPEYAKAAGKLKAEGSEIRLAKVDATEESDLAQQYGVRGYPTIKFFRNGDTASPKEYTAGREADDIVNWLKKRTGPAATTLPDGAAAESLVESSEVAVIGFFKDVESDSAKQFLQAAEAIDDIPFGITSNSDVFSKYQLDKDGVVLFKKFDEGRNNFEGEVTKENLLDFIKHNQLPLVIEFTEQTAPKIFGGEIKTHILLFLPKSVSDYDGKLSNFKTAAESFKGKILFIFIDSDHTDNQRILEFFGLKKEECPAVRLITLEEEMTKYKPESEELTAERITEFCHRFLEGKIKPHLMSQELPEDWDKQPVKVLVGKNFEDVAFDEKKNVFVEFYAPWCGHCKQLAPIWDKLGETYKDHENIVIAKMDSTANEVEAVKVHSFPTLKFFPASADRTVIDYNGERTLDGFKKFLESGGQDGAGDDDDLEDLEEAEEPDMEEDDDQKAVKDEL
# No constants are given. Whether binding was seen depends on the method and setting. Binding seen in cells or lysates may run through a third protein. Here binding means that the protein was enriched with, or labelled near, the bait; the list need not be complete. Sequences can lack the tags named with a protein.
# T1: mouse progranulin tagged with HA (mouse) (UniProt P28798)
# T1 sequence: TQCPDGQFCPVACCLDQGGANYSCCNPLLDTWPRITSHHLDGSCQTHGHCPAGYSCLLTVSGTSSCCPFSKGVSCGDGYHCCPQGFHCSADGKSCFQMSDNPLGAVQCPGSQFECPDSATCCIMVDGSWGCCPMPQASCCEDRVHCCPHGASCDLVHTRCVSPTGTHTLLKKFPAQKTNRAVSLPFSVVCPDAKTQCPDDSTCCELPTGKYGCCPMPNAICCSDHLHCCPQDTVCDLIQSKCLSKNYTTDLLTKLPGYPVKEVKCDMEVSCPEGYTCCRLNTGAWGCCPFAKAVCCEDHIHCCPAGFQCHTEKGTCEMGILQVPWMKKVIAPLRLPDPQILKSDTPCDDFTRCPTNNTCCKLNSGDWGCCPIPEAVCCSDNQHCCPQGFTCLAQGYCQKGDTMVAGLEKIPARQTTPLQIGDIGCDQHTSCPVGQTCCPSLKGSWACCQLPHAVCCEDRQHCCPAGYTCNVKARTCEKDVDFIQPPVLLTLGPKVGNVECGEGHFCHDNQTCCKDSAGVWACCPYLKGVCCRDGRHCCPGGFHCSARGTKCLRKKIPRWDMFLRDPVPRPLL
# B1: ERp5 (enzyme, UniProt Q15084 20-440)
# chain: LYSSSDDVIELTPSNFNREVIQSDSLWLVEFYAPWCGHCQRLTPEWKKAATALKDVVKVGAVDADKHHSLGGQYGVQGFPTIKIFGSNKNRPEDYQGGRTGEAIVDAALSALRQLVKDRLGGRSGGYSSGKQGRSDSSSKKDVIELTDDSFDKNVLDSEDVWMVEFYAPWCGHCKNLEPEWAAAASEVKEQTKGKVKLAAVDATVNQVLASRYGIRGFPTIKIFQKGESPVDYDGGRTRSDIVSRALDLFSDNAPPPELLEIINEDIAKRTCEEHQLCVVAVLPHILDTGAAGRNSYLEVLLKLADKYKKKMWGWLWTEAGAQSELETALGIGGFGYPAMAAINARKMKFALLKGSFSEQGINEFLRELSFGRGSTAPVGGGAFPTIVEREPWDGRDGELPVEDDIDLSDVELDDLGKDEL
# B2: ERp72 (enzyme, UniProt P13667 21-645)
# chain: VAGAEGPDEDSSNRENAIEDEEEEEEEDDDEEEDDLEVKEENGVLVLNDANFDNFVADKDTVLLEFYAPWCGHCKQFAPEYEKIANILKDKDPPIPVAKIDATSASVLASRFDVSGYPTIKILKKGQAVDYEGSRTQEEIVAKVREVSQPDWTPPPEVTLVLTKENFDEVVNDADIILVEFYAPWCGHCKKLAPEYEKAAKELSKRSPPIPLAKVDATAETDLAKRFDVSGYPTLKIFRKGRPYDYNGPREKYGIVDYMIEQSGPPSKEILTLKQVQEFLKDGDDVIIIGVFKGESDPAYQQYQDAANNLREDYKFHHTFSTEIAKFLKVSQGQLVVMQPEKFQSKYEPRSHMMDVQGSTQDSAIKDFVLKYALPLVGHRKVSNDAKRYTRRPLVVVYYSVDFSFDYRAATQFWRSKVLEVAKDFPEYTFAIADEEDYAGEVKDLGLSESGEDVNAAILDESGKKFAMEPEEFDSDTLREFVTAFKKGKLKPVIKSQPVPKNNKGPVKVVVGKTFDSIVMDPKKDVLIEFYAPWCGHCKQLEPVYNSLAKKYKGQKGLVIAKMDATANDVPSDRYKVEGFPTIYFAPSGDKKNPVKFEGGDRDLEHLSKFIEEHATKLSRTKEEL
# Target: T1, mouse progranulin tagged with HA (mouse)
# Assay: cross-linking + affinity purification with mass spectrometry; HEK293 cells stably expressing mPGRN-HA treated with 1 mM DSS (membrane-permeable) in Ca2+- and Mg2+-free PBS, 30 min, room temperature; lysed in 50 mM Tris-HCl, 150 mM NaCl, 0.5% Triton X-100, 1 mM EDTA; IP with anti-HA (3F10) overnight at 4 °C, protein G-agarose; SDS-PAGE, silver stain, bands 1-4 cut out for mass spectrometry
row,binding,Molecule
1,binds,BiP (from UniProt P11021 19-654)
2,binds,ERp57 (from UniProt P30101 25-505) (enzyme)
3,binds,GRP94 (from UniProt P14625 22-803)
4,binds,HSP70-1 (from UniProt P0DMV8 1-641)
5,binds,calreticulin (from UniProt P27797 18-417)
6,binds,protein disulfide isomerase (from UniProt P07237 18-508) (enzyme)
7,binds,B1
8,binds,B2
